In PMC2991254:
No constants are given. Whether binding was seen depends on the method and setting.

Experiments:
[1] = molecular target: SVP2 (Arabidopsis thaliana); experiment: two-hybrid; matrix-based yeast two-hybrid, GAL4-AD and GAL4-BD fusions (pDEST22, pDEST32), in duplicate, at least two reporter genes; medium lacking Leu, Trp and His with 1 mM 3-amino-1,2,4-triazole, growth scored after 4 days at 20°C
[2] = molecular target: ABSIi (Arabidopsis thaliana); experiment: as above

| binding [1] | binding [2] | Binder |
| --- | --- | --- |
| no binding | no binding | AGAMOUS-LIKE24 (protein, UniProt O82794 1-220) MAREKIRIKKIDNITARQVTFSKRRRGIFKKADELSVLCDADVALIIFSATGKLFEFSSSRMRDILGRYSLHASNINKLMDPPSTHLRLENCNLSRLSKEVEDKTKQLRKLRGEDLDGLNLEELQRLEKLLESGLSRVSEKKGECVMSQIFSLEKRGSELVDENKRLRDKLETLERAKLTTLKEALETESVTTNVSSYDSGTPLEDDSDTSLKLGLPSWE |
| no binding | no binding | AGL24 R61S (protein, UniProt O82794 1-220) MAREKIRIKKIDNITARQVTFSKRRRGIFKKADELSVLCDADVALIIFSATGKLFEFSSSSMRDILGRYSLHASNINKLMDPPSTHLRLENCNLSRLSKEVEDKTKQLRKLRGEDLDGLNLEELQRLEKLLESGLSRVSEKKGECVMSQIFSLEKRGSELVDENKRLRDKLETLERAKLTTLKEALETESVTTNVSSYDSGTPLEDDSDTSLKLGLPSWE |
